{"source": "the supplement of paper PMC7830784", "note": "Structures can show the parent of a compound that is named as a salt. This is one part of the list. Repeats in this data set agree poorly, so a single value says little.", "data": [{"tested_on": "Brugia pahangi adult female", "experiment": "motility inhibition on day 3 relative to DMSO vehicle; higher = more active", "settings": "10 µM; 3 days", "units": {"motility inhibition on day 3": "%"}, "values": [{"smiles": "C=CC[N+]1([C@H]2C[C@H]3[C@@H]4CC[C@H]5C[C@H](O)[C@@H](N6CCOCC6)C[C@]5(C)[C@H]4CC[C@]3(C)[C@H]2OC(C)=O)CCCC1", "note": "[Rocuronium bromide]", "motility inhibition on day 3": "< 0"}, {"smiles": "CC(C)(C)NC(=O)[C@H]1CC[C@H]2[C@@H]3CC[C@H]4NC(=O)C=C[C@]4(C)[C@H]3CC[C@]12C", "note": "[finasteride]", "motility inhibition on day 3": "< 0"}, {"smiles": "C[N+](C)(C)C[C@H](O)CC(=O)[O-]", "note": "[levocarnitine]", "motility inhibition on day 3": "< 0"}, {"smiles": "CC(CN(C)C)CN1c2ccccc2CCc2ccccc21", "note": "(stereo unspecified) [trimipramine maleate]", "motility inhibition on day 3": 19}, {"smiles": "CC(C)NCC(O)COc1cccc2[nH]ccc12", "note": "(stereo unspecified) [Pindolol]", "motility inhibition on day 3": 28.5}, {"smiles": "OC(CCN1CCCC1)(c1ccccc1)C1CCCCC1", "note": "(stereo unspecified) [procyclidine hydrochloride]", "motility inhibition on day 3": 1.29}, {"smiles": "O=C(Nc1ccc([N+](=O)[O-])cc1Cl)c1cc(Cl)ccc1O", "note": "[niclosamide]", "motility inhibition on day 3": 97.2}, {"smiles": "CCOc1ccc(Cc2nccc3cc(OCC)c(OCC)cc23)cc1OCC", "note": "[ethaverine hydrochloride]", "motility inhibition on day 3": 12.8}, {"smiles": "Nc1ccc(S(=O)(=O)O)cc1.Nc1ccc(S(=O)(=O)O)cc1.[Zn]", "note": "[sulfanilate zinc]", "motility inhibition on day 3": 24.5}, {"smiles": "C#C[C@]1(O)CC[C@H]2[C@@H]3CCC4=Cc5oncc5C[C@]4(C)[C@H]3CC[C@@]21C", "note": "[danazol]", "motility inhibition on day 3": 16.3}, {"smiles": "CN1C(C(=O)Nc2ccccn2)=C(O)c2sc(Cl)cc2S1(=O)=O", "note": "[lornoxicam]", "motility inhibition on day 3": 6.25}, {"smiles": "CC12CC3CC(C)(C1)CC(N)(C3)C2", "note": "[Memantine hydrochloride]", "motility inhibition on day 3": 12.9}, {"smiles": "CCC[C@@H]1C[C@@H](C(=O)N[C@@H]([C@H]2O[C@H](SC)[C@H](O)[C@@H](O)[C@H]2O)[C@@H](C)O)N(C)C1", "note": "[lincomycin hydrochloride]", "motility inhibition on day 3": 64.8}, {"smiles": "CO[C@H]1C[C@@H]2CC[C@@H](C)[C@@](O)(O2)C(=O)C(=O)N2CCCC[C@H]2C(=O)O[C@H]([C@H](C)C[C@@H]2CC[C@@H](OC(=O)C(C)(CO)CO)[C@H](OC)C2)CC(=O)[C@H](C)/C=C(\\C)[C@@H](O)[C@@H](OC)C(=O)[C@H](C)C[C@H](C)/C=C/C=C/C=C/1C", "note": "[Temsirolimus]", "motility inhibition on day 3": 15.5}, {"smiles": "CN1CCCN=C1/C=C/c1cccs1", "note": "[pyrantel pamoate]", "motility inhibition on day 3": 39.9}, {"smiles": "CCCCC(CC)COc1ccc(-c2nc(-c3ccc(OC)cc3)nc(-c3ccc(OCC(CC)CCCC)cc3O)n2)c(O)c1", "note": "(stereo unspecified) [bemotrizinol]", "motility inhibition on day 3": 9.51}, {"smiles": "CC/C=C\\C/C=C\\C/C=C\\C/C=C\\C/C=C\\C/C=C\\CCC(=O)O", "note": "[doconexent]", "motility inhibition on day 3": "< 0"}, {"smiles": "O=c1cc[nH]c(=O)[nH]1", "note": "[uracil]", "motility inhibition on day 3": 7.61}, {"smiles": "CCC(=O)OCC(=O)[C@@]1(OC(=O)CC)[C@@H](C)C[C@H]2[C@@H]3CCC4=CC(=O)C=C[C@]4(C)[C@@]3(F)[C@@H](O)C[C@@]21C", "note": "[betamethasone 17,21-dipropionate]", "motility inhibition on day 3": 13.8}, {"smiles": "CC1(C)O[C@@H]2C[C@H]3[C@@H]4C[C@H](F)C5=CC(=O)CC[C@]5(C)[C@H]4[C@@H](O)C[C@]3(C)[C@]2(C(=O)CO)O1", "note": "[flurandrenolide]", "motility inhibition on day 3": 24.7}, {"smiles": "NNC(=O)c1ccncc1", "note": "[isoniazid]", "motility inhibition on day 3": 46.5}, {"smiles": "CCN1CCCC1CNC(=O)c1cc(S(N)(=O)=O)ccc1OC", "note": "(stereo unspecified) [sulpiride]", "motility inhibition on day 3": 1.96}, {"smiles": "COc1ccc(-c2ccc3cc(C(=O)O)ccc3c2)cc1C12CC3CC(CC(C3)C1)C2", "note": "[adapalene]", "motility inhibition on day 3": 23.2}, {"smiles": "O=c1[nH]c(=O)n([C@H]2C[C@H](O)[C@@H](CO)O2)cc1I", "note": "[idoxuridine]", "motility inhibition on day 3": "< 0"}, {"smiles": "N[C@@H](COP(=O)(O)O)C(=O)O", "note": "[O-Phospho-L-serine]", "motility inhibition on day 3": "< 0"}, {"smiles": "Cc1cccc(N(C)C(=S)Oc2ccc3ccccc3c2)c1", "note": "[tolnaftate]", "motility inhibition on day 3": "< 0"}, {"smiles": "O=C(O)c1cccnc1", "note": "[niacin]", "motility inhibition on day 3": 14.7}, {"smiles": "CCCCc1oc2ccccc2c1C(=O)c1cc(I)c(OCCN(CC)CC)c(I)c1", "note": "[Amiodarone hydrochloride]", "motility inhibition on day 3": 2.32}, {"smiles": "CC(C)C[C@H](NC(=O)[C@@H](Cc1cccc2ccccc12)NC(=O)[C@H](Cc1ccc(O)cc1)NC(=O)[C@H](CO)NC(=O)[C@H](Cc1c[nH]c2ccccc12)NC(=O)[C@H](Cc1cnc[nH]1)NC(=O)[C@@H]1CCC(=O)N1)C(=O)N[C@@H](CCCNC(=N)N)C(=O)N1CCC[C@H]1C(=O)NCC(N)=O", "note": "[Nafarelin]", "motility inhibition on day 3": 9.34}, {"smiles": "CN(C)CCc1c[nH]c2ccc(CS(=O)(=O)N3CCCC3)cc12", "note": "[almotriptan]", "motility inhibition on day 3": "< 0"}, {"smiles": "CN1CCN2c3ccccc3Cc3ccccc3C2C1", "note": "(stereo unspecified) [Mianserin hydrochloride]", "motility inhibition on day 3": 24.9}, {"smiles": "N[C@@H](Cc1ccc(O)c(O)c1)C(=O)O", "note": "[levodopa]", "motility inhibition on day 3": 6.31}, {"smiles": "CCCCc1ncc(/C=C(\\Cc2cccs2)C(=O)O)n1Cc1ccc(C(=O)O)cc1", "note": "[Eprosartan mesylate]", "motility inhibition on day 3": 15.5}, {"smiles": "O=C(O)CCC(=O)c1ccc(-c2ccccc2)cc1", "note": "[fenbufen]", "motility inhibition on day 3": 1.92}, {"smiles": "O=C1c2c(O)ccc(O)c2C(=O)c2c(NCCNCCO)ccc(NCCNCCO)c21", "note": "[mitoxanthrone hydrochloride]", "motility inhibition on day 3": 31.5}, {"smiles": "CCOC(=O)C1=C(C)NC(C)=C(C(=O)OC)C1c1cccc(Cl)c1Cl", "note": "(stereo unspecified) [felodipine]", "motility inhibition on day 3": 7.8}, {"smiles": "CO[C@H]1C[C@H](O[C@@H]2/C(C)=C/C[C@@H]3C[C@@H](C[C@]4(CC[C@H](C)[C@@H](C5CCCCC5)O4)O3)OC(=O)[C@@H]3C=C(C)/C(=N/O)[C@H]4OC/C(=C\\C=C\\[C@@H]2C)[C@]43O)O[C@@H](C)[C@@H]1O", "note": "[selamectin]", "motility inhibition on day 3": 28.2}, {"smiles": "C[C@H](CCC(=O)O)[C@H]1CC[C@H]2[C@@H]3C(=O)C[C@@H]4CC(=O)CC[C@]4(C)[C@H]3CC(=O)[C@]12C", "note": "[sodium dehydrocholate]", "motility inhibition on day 3": 2.03}, {"smiles": "C[C@H](CCC(=O)O)[C@H]1CC[C@H]2[C@@H]3C(=O)C[C@@H]4CC(=O)CC[C@]4(C)[C@H]3CC(=O)[C@]12C", "note": "[dehydrocholic acid]", "motility inhibition on day 3": 0.86}, {"smiles": "C[N+](C)(C)CCOC(N)=O", "note": "[Carbachol]", "motility inhibition on day 3": 6.1}, {"smiles": "CC(C)(C)NC[C@H](O)COc1cccc2c1CCCC2=O", "note": "[levobunolol hydrochloride]", "motility inhibition on day 3": 5.47}, {"smiles": "COC(=O)/C=C/C(=O)OC", "note": "[dimethyl fumarate]", "motility inhibition on day 3": 15.8}, {"smiles": "OC[C@H]1O[C@@H](O[C@H]2[C@H](O)[C@@H](O)C(O)O[C@@H]2CO)[C@H](O)[C@@H](O)[C@H]1O", "note": "(stereo partly specified) [lactose monohydrate]", "motility inhibition on day 3": 31.5}, {"smiles": "O=C(NC(Cc1cc(=O)[nH]c2ccccc12)C(=O)O)c1ccc(Cl)cc1", "note": "(stereo unspecified) [rebamipide]", "motility inhibition on day 3": 5.69}, {"smiles": "COc1ccc(C[C@@H](C)NC[C@H](O)c2ccc(O)c(NC=O)c2)cc1", "note": "[Arformoterol Tartrate]", "motility inhibition on day 3": 20.5}, {"smiles": "CCCCC(=O)N(Cc1ccc(-c2ccccc2-c2nnn[nH]2)cc1)[C@H](C(=O)O)C(C)C", "note": "[valsartan]", "motility inhibition on day 3": "< 0"}, {"smiles": "OC(CCN1CCCCC1)(c1ccccc1)c1ccccc1", "note": "[pridinol methanesulfonate]", "motility inhibition on day 3": 10.2}, {"smiles": "CCN(CC)CCNC(=O)c1cc(Br)c(N)cc1OC", "note": "[bromopride]", "motility inhibition on day 3": 36.4}, {"smiles": "CCOC(N)=O", "note": "[urethane]", "motility inhibition on day 3": 34.7}, {"smiles": "O=C1c2cccc(O)c2C(=O)c2c(O)cccc21", "note": "[dantron]", "motility inhibition on day 3": 38.3}, {"smiles": "CSCC[C@H](NC(=O)[C@H](Cc1c[nH]c2ccccc12)NC(=O)CCNC(=O)OC(C)(C)C)C(=O)N[C@@H](CC(=O)O)C(=O)N[C@@H](Cc1ccccc1)C(N)=O", "note": "[pentagastrin]", "motility inhibition on day 3": 14.6}, {"smiles": "CC(C)NNC(=O)c1ccncc1", "note": "[Iproniazid phosphate]", "motility inhibition on day 3": "< 0"}, {"smiles": "Clc1ccc(C(c2ccccc2Cl)C(Cl)Cl)cc1", "note": "(stereo unspecified) [mitotane]", "motility inhibition on day 3": 28.7}, {"smiles": "O=C1O[C@H]([C@@H](O)CO)C(O)=C1O", "note": "[ascorbic acid]", "motility inhibition on day 3": 13.4}, {"smiles": "CC(=O)Nc1ccc(S(=O)(=O)c2ccc(NC(C)=O)cc2)cc1", "note": "[acedapsone]", "motility inhibition on day 3": 13.4}, {"smiles": "O=C(O)c1ccccc1Nc1cccc(C(F)(F)F)c1", "note": "[flufenamic acid]", "motility inhibition on day 3": 3.12}, {"smiles": "OCCc1ccccc1", "note": "[phenylethyl alcohol]", "motility inhibition on day 3": 24.9}, {"smiles": "Nc1ccc(C(=O)O)c(O)c1", "note": "[sodium p-aminosalicylate]", "motility inhibition on day 3": 0.793}, {"smiles": "O=C1Nc2ccc(Cl)cc2[C@@](C#CC2CC2)(C(F)(F)F)O1", "motility inhibition on day 3": 3.27}, {"smiles": "Nc1nc(/C(=C/CC(=O)O)C(=O)N[C@@H]2C(=O)N3C(C(=O)O)=CCS[C@H]23)cs1", "note": "[ceftibuten]", "motility inhibition on day 3": 12.3}, {"smiles": "CCC(=O)O[C@]1(C(=O)SCF)[C@H](C)C[C@H]2[C@@H]3C[C@H](F)C4=CC(=O)C=C[C@]4(C)[C@@]3(F)[C@@H](O)C[C@@]21C", "motility inhibition on day 3": 30.4}, {"smiles": "CCC(=O)O[C@]1(C(=O)SCF)[C@H](C)C[C@H]2[C@@H]3C[C@H](F)C4=CC(=O)C=C[C@]4(C)[C@@]3(F)[C@@H](O)C[C@@]21C", "note": "[fluticasone propionate]", "motility inhibition on day 3": "< 0"}, {"smiles": "Nc1ccc(/N=N/c2ccccc2)c(N)n1", "note": "[phenazopyridine hydrochloride]", "motility inhibition on day 3": 2.95}, {"smiles": "C[C@H](N[C@@H](CCc1ccccc1)C(=O)O)C(=O)N1Cc2ccccc2C[C@H]1C(=O)O", "note": "[quinaprilat]", "motility inhibition on day 3": 12.3}, {"smiles": "CN(C)CCOC(=O)C(c1ccccc1)C1(O)CCCC1", "note": "(stereo unspecified) [cyclopentolate hydrochloride]", "motility inhibition on day 3": "< 0"}, {"smiles": "CC(NCCc1ccc(O)cc1)C(O)c1ccc(O)cc1", "note": "(stereo unspecified) [ritodrine hydrochloride]", "motility inhibition on day 3": 14.3}, {"smiles": "CCC1(C)CC(=O)NC1=O", "note": "(stereo unspecified) [ethosuximide]", "motility inhibition on day 3": "< 0"}, {"smiles": "NC1CCN(c2c(F)cc3c(=O)c(C(=O)O)cn(C4CC4)c3c2Cl)C1", "note": "(stereo unspecified) [clinafoxacin hydrochloride]", "motility inhibition on day 3": 9.93}, {"smiles": "CC(=O)Nc1ccc(OC(C)=O)cc1", "note": "[diacetamate]", "motility inhibition on day 3": 4.31}, {"smiles": "CCCNC(C)(C)COC(=O)c1ccccc1", "note": "[meprylcaine hydrochloride]", "motility inhibition on day 3": 3.08}, {"smiles": "O=S(=O)(c1cccc2cnccc12)N1CCCNCC1", "note": "[fasudil hydrochloride]", "motility inhibition on day 3": 0.676}]}]}
